Earlier results as cited in patent US20250090698A1, “SMALL MOLECULE INHIBITORS FOR EARLY DIAGNOSIS OF PROSTATE SPECIFIC MEMBRANE ANTIGEN CANCERS AND NEURODEGENERATIVE DISEASES” (INDIAN INSTITUTE OF TECHNOLOGY INDORE, priority 2018, published 2025).
Like-named read-outs stand apart in the source and are kept apart here. The structures given here were assigned with low confidence; some may be wrong.

By UniProt entry, the sequences of proteins in these tests, tags left out.
UniProt Q04609, whole entry: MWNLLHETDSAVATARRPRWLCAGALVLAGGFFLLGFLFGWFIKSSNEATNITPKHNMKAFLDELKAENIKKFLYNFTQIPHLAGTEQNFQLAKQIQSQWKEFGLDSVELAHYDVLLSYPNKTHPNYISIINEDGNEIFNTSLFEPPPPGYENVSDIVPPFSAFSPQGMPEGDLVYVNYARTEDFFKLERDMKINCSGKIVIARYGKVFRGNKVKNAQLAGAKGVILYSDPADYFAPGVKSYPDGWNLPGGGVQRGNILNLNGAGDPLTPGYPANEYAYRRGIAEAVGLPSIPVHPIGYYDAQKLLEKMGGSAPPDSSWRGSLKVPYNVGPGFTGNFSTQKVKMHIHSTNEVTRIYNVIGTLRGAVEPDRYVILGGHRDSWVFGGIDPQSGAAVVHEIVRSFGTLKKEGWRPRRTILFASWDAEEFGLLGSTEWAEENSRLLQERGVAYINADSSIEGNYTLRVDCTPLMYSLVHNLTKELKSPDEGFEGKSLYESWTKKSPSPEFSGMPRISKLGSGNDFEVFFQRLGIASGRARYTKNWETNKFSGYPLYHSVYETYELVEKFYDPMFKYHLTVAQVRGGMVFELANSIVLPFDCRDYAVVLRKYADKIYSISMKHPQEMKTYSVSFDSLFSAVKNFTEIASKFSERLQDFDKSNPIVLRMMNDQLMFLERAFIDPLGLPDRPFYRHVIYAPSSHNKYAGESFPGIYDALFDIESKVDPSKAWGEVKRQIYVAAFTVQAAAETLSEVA

Molecular target: PSMA (Homo sapiens, UniProt Q04609)
Settings: cited from earlier work

Row | SMILES | Kd (DUPA conjugates, as repeated in text) | Kd (DUPA conjugates with different peptide spacers)
1 | O=C(O)CCC(NC(=O)CNC(CC(=O)O)C(=O)O)C(=O)O (centres unmarked) | 0.338 µM | 
2 | CCC(C)C(NCC(=O)NC(CCC(=O)O)C(=O)O)C(=O)O (centres unmarked) |  | 0.102 µM
